In PMC10067937:
Results are given in words; binding and its absence hold for the method and conditions named. In cells and extracts the contact can be indirect. Some results given as binding are weak or reduced against the parent protein; the word gives no strength.

The chains behind the UniProt entries cited, without tags or fusion partners.
UniProt Q92508: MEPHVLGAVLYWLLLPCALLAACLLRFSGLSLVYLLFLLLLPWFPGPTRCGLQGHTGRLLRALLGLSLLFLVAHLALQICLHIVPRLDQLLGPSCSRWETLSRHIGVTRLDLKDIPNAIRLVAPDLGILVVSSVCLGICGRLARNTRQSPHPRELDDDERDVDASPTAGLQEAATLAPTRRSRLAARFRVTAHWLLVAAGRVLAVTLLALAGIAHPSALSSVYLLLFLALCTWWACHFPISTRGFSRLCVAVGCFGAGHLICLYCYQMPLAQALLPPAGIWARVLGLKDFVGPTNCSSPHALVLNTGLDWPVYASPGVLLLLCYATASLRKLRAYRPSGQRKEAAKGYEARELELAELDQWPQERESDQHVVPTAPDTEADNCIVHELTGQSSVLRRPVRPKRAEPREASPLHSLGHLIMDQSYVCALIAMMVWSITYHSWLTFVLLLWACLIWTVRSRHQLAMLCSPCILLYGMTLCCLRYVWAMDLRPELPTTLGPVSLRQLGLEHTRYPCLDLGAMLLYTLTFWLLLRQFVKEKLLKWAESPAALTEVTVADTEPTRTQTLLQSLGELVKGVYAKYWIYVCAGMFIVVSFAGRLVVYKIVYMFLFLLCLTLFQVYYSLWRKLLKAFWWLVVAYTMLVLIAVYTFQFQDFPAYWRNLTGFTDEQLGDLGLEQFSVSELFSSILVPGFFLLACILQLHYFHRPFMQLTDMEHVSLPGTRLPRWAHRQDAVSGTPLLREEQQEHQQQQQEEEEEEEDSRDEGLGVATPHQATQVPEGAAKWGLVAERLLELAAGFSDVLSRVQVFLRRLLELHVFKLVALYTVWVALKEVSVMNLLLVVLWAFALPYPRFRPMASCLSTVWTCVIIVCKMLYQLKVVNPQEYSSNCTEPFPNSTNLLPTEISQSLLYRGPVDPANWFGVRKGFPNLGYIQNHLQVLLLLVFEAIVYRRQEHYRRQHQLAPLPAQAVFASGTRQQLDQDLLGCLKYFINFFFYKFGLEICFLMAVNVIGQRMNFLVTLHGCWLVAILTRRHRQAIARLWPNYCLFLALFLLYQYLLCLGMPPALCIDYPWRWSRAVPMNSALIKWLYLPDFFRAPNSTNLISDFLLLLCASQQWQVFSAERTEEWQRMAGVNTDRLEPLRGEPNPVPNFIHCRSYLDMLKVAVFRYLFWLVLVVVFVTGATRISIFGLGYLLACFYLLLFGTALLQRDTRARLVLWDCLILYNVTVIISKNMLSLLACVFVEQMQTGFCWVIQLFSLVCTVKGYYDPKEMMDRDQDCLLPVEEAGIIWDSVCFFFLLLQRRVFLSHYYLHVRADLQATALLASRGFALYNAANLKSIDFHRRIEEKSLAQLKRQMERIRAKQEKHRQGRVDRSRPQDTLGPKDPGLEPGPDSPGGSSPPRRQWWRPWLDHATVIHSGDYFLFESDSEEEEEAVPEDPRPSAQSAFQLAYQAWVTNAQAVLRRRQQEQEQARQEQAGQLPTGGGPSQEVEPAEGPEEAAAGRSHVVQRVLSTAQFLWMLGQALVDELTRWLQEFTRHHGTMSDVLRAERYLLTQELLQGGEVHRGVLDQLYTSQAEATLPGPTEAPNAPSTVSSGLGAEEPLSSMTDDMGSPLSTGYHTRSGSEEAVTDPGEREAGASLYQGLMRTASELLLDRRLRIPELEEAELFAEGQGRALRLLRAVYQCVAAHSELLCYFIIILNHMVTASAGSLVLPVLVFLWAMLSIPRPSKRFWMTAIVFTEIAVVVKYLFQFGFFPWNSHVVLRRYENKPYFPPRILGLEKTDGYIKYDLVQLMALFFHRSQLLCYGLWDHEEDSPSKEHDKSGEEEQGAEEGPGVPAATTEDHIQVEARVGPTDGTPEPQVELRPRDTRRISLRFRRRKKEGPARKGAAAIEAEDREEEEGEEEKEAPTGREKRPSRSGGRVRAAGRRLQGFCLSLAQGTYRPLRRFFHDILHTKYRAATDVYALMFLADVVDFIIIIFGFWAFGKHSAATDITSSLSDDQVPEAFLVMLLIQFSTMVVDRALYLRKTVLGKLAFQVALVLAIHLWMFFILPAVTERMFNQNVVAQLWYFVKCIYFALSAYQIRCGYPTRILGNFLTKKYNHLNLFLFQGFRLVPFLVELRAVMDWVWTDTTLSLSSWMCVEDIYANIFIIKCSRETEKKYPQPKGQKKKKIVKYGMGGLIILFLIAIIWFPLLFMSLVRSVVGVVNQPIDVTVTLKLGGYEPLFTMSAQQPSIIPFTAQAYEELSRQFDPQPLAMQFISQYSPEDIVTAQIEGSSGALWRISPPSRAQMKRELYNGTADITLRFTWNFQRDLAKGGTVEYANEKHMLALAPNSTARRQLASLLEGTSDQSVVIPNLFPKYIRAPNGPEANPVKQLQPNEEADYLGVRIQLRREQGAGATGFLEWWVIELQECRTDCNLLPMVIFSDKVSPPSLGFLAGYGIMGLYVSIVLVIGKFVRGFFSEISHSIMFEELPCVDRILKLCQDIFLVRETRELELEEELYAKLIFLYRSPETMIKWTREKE

Columns and labels:
[1] = biological target: human PIEZO1-mTurquoise2 (human) (UniProt Q92508); experiment: FRET or BRET; FRET by FLIM of the donor PIEZO1-mTurquoise2 with an acceptor-tagged partner coexpressed in COS-7 cells, fixed with 4% paraformaldehyde; two-photon excitation at 800 nm; peak lifetime of whole cells, cell-cell junctions or non-junctional regions; static dishes, or slides preconditioned 24 h at 10 dyn.cm^-2, 30 min static, then 10 min shear or static
[2] = biological target: C-terminal HA-tagged full length human PIEZO1 (T1) (human) (UniProt Q92508); experiment: co-IP; 500 μg lysate of transiently transfected HEK 293 cells (0.5% Nonidet P40 substitute, 10 mM Tris, 150 mM NaCl, 0.5 mM EDTA, pH 7.4) with 1 μg anti-HA (3F10) at 4 °C, Protein G agarose; blots with anti-PECAM1 or anti-CDH5

Row | binding [1] | binding [2] | Binder
1 | binds | – | CDH5-mVenus (Cadherin-5, VE-cadherin), in COS-7 cells (protein, UniProt P33151 48-784) DWIWNQMHIDEEKNTSLPHHVGKIKSSVSRKNAKYLLKGEYVGKVFRVDAETGDVFAIERLDRENISEYHLTAVIVDKDTGENLETPSSFTIKVHDVNDNWPVFTHRLFNASVPESSAVGTSVISVTAVDADDPTVGDHASVMYQILKGKEYFAIDNSGRIITITKSLDREKQARYEIVVEARDAQGLRGDSGTATVLVTLQDINDNFPFFTQTKYTFVVPEDTRVGTSVGSLFVEDPDEPQNRMTKYSILRGDYQDAFTIETNPAHNEGIIKPMKPLDYEYIQQYSFIVEATDPTIDLRYMSPPAGNRAQVIINITDVDEPPIFQQPFYHFQLKENQKKPLIGTVLAMDPDAARHSIGYSIRRTSDKGQFFRVTKKGDIYNEKELDREVYPWYNLTVEAKELDSTGTPTGKESIVQVHIEVLDENDNAPEFAKPYQPKVCENAVHGQLVLQISAIDKDITPRNVKFKFILNTENNFTLTDNHDNTANITVKYGQFDREHTKVHFLPVVISDNGMPSRTGTSTLTVAVCKCNEQGEFTFCEDMAAQVGVSIQAVVAILLCILTITVITLLIFLRRRLRKQARAHGKSVPEIHEQLVTYDEEGGGEMDTTSYDVSVLNSVRRGGAKPPRPALDARPSLYAQVQKPPRHAPGAHGGPGEMAAMIEVKKDEADHDGDGPPYDTLHIYGYEGSESIAESLSSLGTDSSDSDVDYDFLNDWGPRFKMLAELYGSDPREELLY
2 | – | binds | CDH5 coexpressed with PIEZO1 for co-immunoprecipitation (protein, UniProt P33151 48-784) DWIWNQMHIDEEKNTSLPHHVGKIKSSVSRKNAKYLLKGEYVGKVFRVDAETGDVFAIERLDRENISEYHLTAVIVDKDTGENLETPSSFTIKVHDVNDNWPVFTHRLFNASVPESSAVGTSVISVTAVDADDPTVGDHASVMYQILKGKEYFAIDNSGRIITITKSLDREKQARYEIVVEARDAQGLRGDSGTATVLVTLQDINDNFPFFTQTKYTFVVPEDTRVGTSVGSLFVEDPDEPQNRMTKYSILRGDYQDAFTIETNPAHNEGIIKPMKPLDYEYIQQYSFIVEATDPTIDLRYMSPPAGNRAQVIINITDVDEPPIFQQPFYHFQLKENQKKPLIGTVLAMDPDAARHSIGYSIRRTSDKGQFFRVTKKGDIYNEKELDREVYPWYNLTVEAKELDSTGTPTGKESIVQVHIEVLDENDNAPEFAKPYQPKVCENAVHGQLVLQISAIDKDITPRNVKFKFILNTENNFTLTDNHDNTANITVKYGQFDREHTKVHFLPVVISDNGMPSRTGTSTLTVAVCKCNEQGEFTFCEDMAAQVGVSIQAVVAILLCILTITVITLLIFLRRRLRKQARAHGKSVPEIHEQLVTYDEEGGGEMDTTSYDVSVLNSVRRGGAKPPRPALDARPSLYAQVQKPPRHAPGAHGGPGEMAAMIEVKKDEADHDGDGPPYDTLHIYGYEGSESIAESLSSLGTDSSDSDVDYDFLNDWGPRFKMLAELYGSDPREELLY
